Source: patent publication US20230303690A1 (published 2023)
No constants are given. Whether binding was seen depends on the method and setting. Some binding calls cover weakened binding; strength is not graded here. Where a sequence is shown, tags or fusion partners need not be part of it.

Target: T1, LAG3 Protein, Human, Recombinant (His Tag) (Sino Biological Catalog No. 16498-H08H) (human) (UniProt P18627)
T1 sequence (looked up): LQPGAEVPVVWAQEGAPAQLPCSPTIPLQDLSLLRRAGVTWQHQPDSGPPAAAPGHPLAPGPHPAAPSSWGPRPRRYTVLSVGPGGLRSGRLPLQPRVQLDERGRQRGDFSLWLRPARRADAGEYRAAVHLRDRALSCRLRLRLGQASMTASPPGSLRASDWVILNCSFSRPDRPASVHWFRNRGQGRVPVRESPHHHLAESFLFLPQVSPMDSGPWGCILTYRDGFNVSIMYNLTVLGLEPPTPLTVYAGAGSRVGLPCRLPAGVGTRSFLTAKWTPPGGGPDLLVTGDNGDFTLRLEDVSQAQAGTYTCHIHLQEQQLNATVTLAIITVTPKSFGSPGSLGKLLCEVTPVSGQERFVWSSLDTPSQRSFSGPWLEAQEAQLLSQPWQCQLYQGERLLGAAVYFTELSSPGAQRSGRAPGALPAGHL
Assay: ELISA, coated hLAG3-His

binding: binds
B1: sdAb No. 25-B6 (VHH)
VHH: QLQLVESGGGLVKPGGSLRLSCAASGSIESFSFMGWYRQAPGKQREWVAGFTGAASLSFSTYTDAVKGRFTISRDNAKNSVYLQMNSLRAEDTAVYYCNVDPWSQSWPGRYWGQGTTVTVSS
notes: Humanized sdAb No. 25; not shown: Fc part implied by anti-human IgG1 Fc detection
